These are yes or no findings as the source states them, for the method shown. In cells and extracts the contact can be indirect. Some results given as binding are weak or reduced against the parent protein; the word gives no strength.
Target: T1, Crystallin alpha B (CRYAB) (mouse (endogenous in NAcc)) (UniProt P23927)
T1 sequence: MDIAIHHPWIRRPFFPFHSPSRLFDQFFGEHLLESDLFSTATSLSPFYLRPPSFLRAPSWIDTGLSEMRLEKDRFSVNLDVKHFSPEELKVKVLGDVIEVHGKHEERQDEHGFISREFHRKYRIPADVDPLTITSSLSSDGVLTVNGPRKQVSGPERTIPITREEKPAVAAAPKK
Assay: co-IP; NAcc samples of cocaine-treated (10 mg/kg) mice, CRYAB antibody overnight at 4°C, protein A/G beads, eluate blotted with EAAT2 antibody

Amino acid sequences for entries named in this document (tags omitted).
UniProt P43006: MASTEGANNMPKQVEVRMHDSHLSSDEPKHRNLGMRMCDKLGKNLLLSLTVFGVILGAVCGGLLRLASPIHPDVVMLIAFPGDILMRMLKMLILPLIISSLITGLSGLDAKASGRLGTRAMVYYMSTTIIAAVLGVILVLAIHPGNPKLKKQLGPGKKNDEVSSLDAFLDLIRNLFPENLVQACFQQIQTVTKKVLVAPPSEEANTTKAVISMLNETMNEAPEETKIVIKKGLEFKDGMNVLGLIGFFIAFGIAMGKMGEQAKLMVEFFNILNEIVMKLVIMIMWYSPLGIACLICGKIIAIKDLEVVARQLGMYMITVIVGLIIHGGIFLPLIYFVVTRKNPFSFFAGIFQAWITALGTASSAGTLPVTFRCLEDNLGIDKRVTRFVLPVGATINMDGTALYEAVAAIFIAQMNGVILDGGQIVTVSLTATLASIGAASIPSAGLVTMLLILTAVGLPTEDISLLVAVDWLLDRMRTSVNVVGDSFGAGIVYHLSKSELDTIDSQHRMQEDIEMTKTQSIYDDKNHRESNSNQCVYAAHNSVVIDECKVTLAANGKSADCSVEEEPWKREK

binding: binds
Substance: excitatory amino acid transporter 2 (EAAT2) (from UniProt P43006 1-572)
